PubChem BioAssay AID1259405 – NCATS | 2018

Purpose: 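Mouse-designed siRNAs used to find CHO productivity engineering targets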 (primary screen)
Cells: Chinese hamster CHO-K1 ovary cells with stable secreted eGFP expression
Reagent: single siRNA against mouse genes, 0.8 pmol siRNA per well (2 µl of 400 nM stock)
Time to read-out: 3 days
Detection: 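Per-well intracellular GFP measured by laser scanning cytometry, plus viability from ATP luminescence, each relative to plate median of non-targeting control wells, in %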
Scale: GFP, % of control: higher = more GFP per well, higher productivity
Hit rule: 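a knock-down is called active if GFP reaches 120% or more of non-targeting control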
In all, the deposit lists about 50,000 reagents; below is a random part of them. About 4,000 of them (8%) were called active. 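Mouse siRNA library applied to hamster cells; one well for each siRNA.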 Unmarked entries are inactive. Reagents against one gene are numbered here. Not all columns of the deposit are shown.

GFP, % of control, by target and reagent
Or5ap2: #1 73.8; #2 76.7; #3 64.1
Hoxb9: #1 76.8; #2 108; #3 56.5
Itih5: #1 94.7; #2 65.9; #3 85.1
Adipor2: #1 100; #2 47.3; #3 99.1
Rilpl2: #1 87.2; #2 117; #3 72
Tll2: #1 97.6; #2 92.3
Fbxo9: #1 94.5; #2 42.9; #3 65
Slc25a15: #1 111; #2 66.7; #3 69.6
Usp19: #1 81.3; #2 63.2; #3 98.9
Esco1: #1 74.2; #2 75.4; #3 81.8
Cfap410: #1 70.7; #2 56.2; #3 58.3
Or51a6: #1 78.1; #2 87.3; #3 68.1
Acbd3: #1 60.9; #2 54.7; #3 85.4
Crim1: #1 108; #2 173 (active)
Gm5431: #1 60.6; #2 27.8; #3 88.3
Impg1: #1 124 (active); #2 86.1
Or2ag1b: #1 61.3; #2 120 (active); #3 52.2
Procr: #1 121 (active); #2 70.1; #3 44.1
Stip1: #1 108; #2 80.7; #3 87
Ppp1r14d: #1 90.7; #2 166 (active); #3 85

Part of the list above in another layout:
Hoxb9 #3: GFP, % of control = 56.5
Itih5 #1: GFP, % of control = 94.7
Itih5 #2: GFP, % of control = 65.9
Itih5 #3: GFP, % of control = 85.1
